# PubChem BioAssay AID1224828, NIAID, 2016
# Test: 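Find genes required for NF-kappaB p65 moving into the nucleus after LPS in mouse macrophages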 (primary screen)
# Cell system: mouse RAW264.7 G9 macrophage reporter cells (GFP-p65, Tnf promoter-mCherry)
# Knock-down reagent: siRNA pool against mouse genes, 100 nM
# Time to read-out: 2 days siRNA transfection, then 40 min LPS before fixation
# Challenge: LPS (Salmonella minnesota R595) at 10 ng/ml
# Measurement: 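Microscopy ratio of nuclear to perinuclear-ring GFP-p65 signal, scaled to the plate median; gene score is the average of two replicate robust z-scores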
# Reading the numbers: p65 translocation robust z-score: higher = more nuclear NF-kappaB p65 after LPS than the plate median; nuclear/cytoplasmic p65 ratio: higher = more nuclear NF-kappaB p65
# Hit rule: 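Active if robust z is above 3.3 (negative regulators) or below -1.56, the Tlr4 control median (positive regulators); activity score 50 or more; control wells not called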
# Calls: active = hit (p65 shift raised or lowered); inactive = no clear change
# Shown is an unselected part of about 17,000 deposited reagents. In the full data, 762 (4.5%) are marked active. 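Active calls include both raised and lowered p65 entry, mostly lowered; wells with fewer than 50 cells lack a z-score.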 Raw values vary from plate to plate and are shown uncorrected.
gene symbol,p65 translocation robust z-score,"nuclear/cytoplasmic p65 ratio, rep 1","nuclear/cytoplasmic p65 ratio, rep 2",low cell count flag,call
Lst1 (leukocyte specific transcript 1),-0.66,1.62,1.27,enough cells to score,inactive
"Serpinb9f (serine (or cysteine) peptidase inhibitor, clade B, member 9f)",,1.33,1.11,fewer than 50 cells per well; well left out of scoring,inactive
Adss2 (adenylosuccinate synthase 2),-0.54,1.5,1.58,enough cells to score,inactive
Noa1 (nitric oxide associated 1),-1.26,1.36,1.29,enough cells to score,inactive
Tm2d1 (TM2 domain containing 1),-0.66,1.41,1.81,enough cells to score,inactive
"Ncaph (non-SMC condensin I complex, subunit H)",-0.77,1.34,1.35,enough cells to score,inactive
Ksr2 (kinase suppressor of ras 2),-0.12,1.67,1.24,enough cells to score,inactive
Rpp25 (ribonuclease P/MRP 25 subunit),-1.23,1.17,1.15,enough cells to score,inactive
Fdx1 (ferredoxin 1),0.19,1.44,1.44,enough cells to score,inactive
Cntn2 (contactin 2),-0.34,1.02,1.34,enough cells to score,inactive
"Syvn1 (synovial apoptosis inhibitor 1, synoviolin)",,1.09,1.47,fewer than 50 cells per well; well left out of scoring,inactive
"Dnah14 (dynein, axonemal, heavy chain 14)",-0.16,1.48,1.51,enough cells to score,inactive
Angptl2 (angiopoietin-like 2),0.52,1.74,1.66,enough cells to score,inactive
Mob3c (MOB kinase activator 3C),0.59,1.8,1.75,enough cells to score,inactive
Lmbr1 (limb region 1),-1.43,1.32,1.28,enough cells to score,inactive
"Diras1 (DIRAS family, GTP-binding RAS-like 1)",-0.1,1.45,1.37,enough cells to score,inactive
Gpr137b (G protein-coupled receptor 137B),-0.28,1.49,1.53,enough cells to score,inactive
"Toporsl (topoisomerase I binding, arginine/serine-rich like)",,1.67,1.35,fewer than 50 cells per well; well left out of scoring,inactive
Ybx1 (Y box protein 1),0.19,1.53,1.39,enough cells to score,inactive
Robo3 (roundabout guidance receptor 3),-1.15,1.23,1.12,enough cells to score,inactive
"Ropn1 (ropporin, rhophilin associated protein 1)",0.86,1.54,1.31,enough cells to score,inactive
Trim3 (tripartite motif-containing 3),,1.32,1.26,fewer than 50 cells per well; well left out of scoring,inactive
Vmn1r26 (vomeronasal 1 receptor 26),-1.02,1.28,1.09,enough cells to score,inactive
"Card10 (caspase recruitment domain family, member 10)",,1.34,1.22,fewer than 50 cells per well; well left out of scoring,inactive
Ero1b (endoplasmic reticulum oxidoreductase 1 beta),,1.48,1.63,fewer than 50 cells per well; well left out of scoring,inactive

Reformatted: 3 of the entries above
Ksr2 (kinase suppressor of ras 2)
- p65 translocation robust z-score: -0.12
- nuclear/cytoplasmic p65 ratio, rep 1: 1.67
- nuclear/cytoplasmic p65 ratio, rep 2: 1.24
- low cell count flag: enough cells to score
- call: inactive

Rpp25 (ribonuclease P/MRP 25 subunit)
- p65 translocation robust z-score: -1.23
- nuclear/cytoplasmic p65 ratio, rep 1: 1.17
- nuclear/cytoplasmic p65 ratio, rep 2: 1.15
- low cell count flag: enough cells to score
- call: inactive

Fdx1 (ferredoxin 1)
- p65 translocation robust z-score: 0.19
- nuclear/cytoplasmic p65 ratio, rep 1: 1.44
- nuclear/cytoplasmic p65 ratio, rep 2: 1.44
- low cell count flag: enough cells to score
- call: inactive

The listing continues:
gene symbol,p65 translocation robust z-score,"nuclear/cytoplasmic p65 ratio, rep 1","nuclear/cytoplasmic p65 ratio, rep 2",low cell count flag,call
Ccdc34 (coiled-coil domain containing 34),0.28,1.47,1.46,enough cells to score,inactive
Diaph1 (diaphanous related formin 1),0.82,1.61,1.47,enough cells to score,inactive
Arhgap5 (Rho GTPase activating protein 5),1.65,1.61,2.11,enough cells to score,inactive
Cdk4 (cyclin dependent kinase 4),0.63,1.81,1.45,enough cells to score,inactive
Osr2 (odd-skipped related 2),1.6,1.64,1.44,enough cells to score,inactive
Cdk14 (cyclin dependent kinase 14),-1.08,1.54,1.22,enough cells to score,inactive
"Tff3 (trefoil factor 3, intestinal)",-0.46,1.36,1.1,enough cells to score,inactive
Klhl11 (kelch-like 11),1.29,1.75,1.59,enough cells to score,inactive
Setd4 (SET domain containing 4),,1.4,1.39,fewer than 50 cells per well; well left out of scoring,inactive
Slc24a2,-0.71,1.27,1.21,enough cells to score,inactive
Cd300ld3 (CD300 molecule like family member D3),0.12,1.52,1.9,enough cells to score,inactive
"Gcsam (germinal center associated, signaling and motility)",0,1.58,1.47,enough cells to score,inactive
Vmn1r188 (vomeronasal 1 receptor 188),,1.42,1.22,fewer than 50 cells per well; well left out of scoring,inactive
Isg15 (ISG15 ubiquitin-like modifier),0.33,1.59,1.55,enough cells to score,inactive
Purg (purine-rich element binding protein G),-0.74,1.26,1.15,enough cells to score,inactive
Bcl11b (B cell leukemia/lymphoma 11B),,1.07,1.1,fewer than 50 cells per well; well left out of scoring,inactive
A630005I04Rik (retired record),,1.23,1.36,fewer than 50 cells per well; well left out of scoring,inactive
Scart2 (scavenger receptor family member expressed on T cells 2),-0.5,1.3,1.3,enough cells to score,inactive
Ramp1 (receptor (calcitonin) activity modifying protein 1),0.31,1.45,1.74,enough cells to score,inactive
Fasn (fatty acid synthase),,1.24,1.14,fewer than 50 cells per well; well left out of scoring,inactive
"Mrgprd (MAS-related GPR, member D)",1.18,1.81,1.62,enough cells to score,inactive
Lrrc75b (leucine rich repeat containing 75B),0.47,1.63,1.81,enough cells to score,inactive
Phf23 (PHD finger protein 23),2.04,1.6,1.81,enough cells to score,inactive
Agt (angiotensinogen),0.2,1.65,1.65,enough cells to score,inactive
"Scn3a (sodium channel, voltage-gated, type III, alpha)",-0.26,1.38,1.19,enough cells to score,inactive
Nxt1 (NTF2-related export protein 1),1.27,1.62,1.57,enough cells to score,inactive
Hlx (H2.0-like homeobox),0.17,1.43,1.43,enough cells to score,inactive
"Ddr1 (discoidin domain receptor family, member 1)",-0.47,1.64,1.3,enough cells to score,inactive
Spata3 (spermatogenesis associated 3),0.29,1.64,1.67,enough cells to score,inactive
Sorbs1 (sorbin and SH3 domain containing 1),-0.83,1.45,1.14,enough cells to score,inactive
Gm839 (predicted gene 839),0.23,1.66,1.59,enough cells to score,inactive
Taf12 (TATA-box binding protein associated factor 12),1.37,1.68,1.75,enough cells to score,inactive
Oas1d (2'-5' oligoadenylate synthetase 1D),-0.4,1.7,1.43,enough cells to score,inactive
Spout1 (SPOUT domain containing methyltransferase 1),-1.5,1.35,1.34,enough cells to score,inactive
